1 substance from PMC11791113 can be followed below.

Chains of the proteins cited; added tags and fusions are not shown. Lines headed by an entry give the natural chain unless they say otherwise; changes in a name come on top.
UniProt A0QSW0: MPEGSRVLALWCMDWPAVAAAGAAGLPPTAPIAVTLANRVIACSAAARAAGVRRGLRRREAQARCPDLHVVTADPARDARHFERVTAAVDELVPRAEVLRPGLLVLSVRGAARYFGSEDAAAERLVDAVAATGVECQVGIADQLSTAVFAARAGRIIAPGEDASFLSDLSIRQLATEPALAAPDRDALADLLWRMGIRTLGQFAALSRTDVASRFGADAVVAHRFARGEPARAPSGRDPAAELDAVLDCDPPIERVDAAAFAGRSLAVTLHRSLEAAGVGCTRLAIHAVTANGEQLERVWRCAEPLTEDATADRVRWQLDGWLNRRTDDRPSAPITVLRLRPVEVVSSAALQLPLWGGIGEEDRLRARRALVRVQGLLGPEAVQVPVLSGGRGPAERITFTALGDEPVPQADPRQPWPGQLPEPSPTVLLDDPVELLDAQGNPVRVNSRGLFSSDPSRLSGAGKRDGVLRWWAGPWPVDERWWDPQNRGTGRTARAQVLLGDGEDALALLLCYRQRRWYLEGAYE
UniProt A0QSV9: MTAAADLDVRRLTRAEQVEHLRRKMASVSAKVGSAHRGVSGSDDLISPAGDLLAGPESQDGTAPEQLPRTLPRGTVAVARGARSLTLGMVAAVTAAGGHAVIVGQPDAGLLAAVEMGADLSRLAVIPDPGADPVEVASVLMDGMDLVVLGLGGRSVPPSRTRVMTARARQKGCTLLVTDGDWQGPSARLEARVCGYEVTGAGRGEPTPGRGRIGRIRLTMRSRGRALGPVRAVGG

In test [1] the target is His-tagged ImuB (wildtype) (Mycobacterium smegmatis) (UniProt A0QSW0). The test can be described thus: pull-down; IMAC pull-down after coexpression of His-ImuB variants with Strep-VFP–ImuAʹ in E. coli: clarified extract incubated with nickel beads, eluted with 500 mM imidazole; amount of ImuB loaded normalised; SDS-PAGE imaged at 532 nm for VFP.
Test [2] shares this target. The test can be described thus: SEC; IMAC eluate of coexpressed His-ImuB variants and Strep-VFP–ImuAʹ injected on a Superdex 200 increase 2.4 ml column, 50 mM Tris pH 8.5, 300 mM NaCl, 1 mM DTT; the fraction at the elution volume of the complex (~1.6 ml) analysed by SDS-PAGE and VFP fluorescence; both purified. In general terms: SEC sorts molecules by how far they enter the pores of the column.

These are yes or no findings as the source states them, for the method shown. Binding calls can cover weak binding; strength is not graded here. For some assays here: Binding seen in cells or lysates may run through a third protein.

In the case of “Strep-VFP-tagged ImuAʹ (from UniProt A0QSV9)”, the binding result in test [1] and in test [2] was “binds” each time.
